Like-named read-outs stand apart in the source and are kept apart here. Results are given in words; binding and its absence hold for the method and conditions named. In cells and extracts the contact can be indirect. These calls come from enrichment with a bait or labelling near it, and not all partners need be listed.
Tests used:
[1] = target: PSMD14 (Proteasome 26S Subunit, Non-ATPase 14), overexpressed in H1299 cells (UniProt O00487); test: affinity purification with mass spectrometry; cleared lysate of H1299 cells (overexpressing PSMD14) in NP-40 buffer with protease inhibitors and 20 uM MG-132; immunoprecipitated with anti-PSMD14 antibody (ab109130) on Protein A/G magnetic beads; SDS-PAGE, in-gel tryptic digestion, LC-MS/MS
[2] = target: PSMD14 (Proteasome 26S Subunit, Non-ATPase 14), overexpressed in H1299 cells (UniProt O00487); test: as above; remark: listed apart in the source

Sequences of proteins named here, by UniProt entry; tags and fusion partners are left off.
UniProt O00487: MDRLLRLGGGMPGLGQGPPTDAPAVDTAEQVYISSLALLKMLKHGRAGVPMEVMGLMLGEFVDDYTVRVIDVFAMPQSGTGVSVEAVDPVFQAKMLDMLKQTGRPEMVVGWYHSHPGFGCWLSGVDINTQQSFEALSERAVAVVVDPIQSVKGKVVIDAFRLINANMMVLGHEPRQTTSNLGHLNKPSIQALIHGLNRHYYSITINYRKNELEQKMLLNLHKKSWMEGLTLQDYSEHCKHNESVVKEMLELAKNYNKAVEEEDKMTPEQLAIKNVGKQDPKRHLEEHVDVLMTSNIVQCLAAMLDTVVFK
UniProt P14618: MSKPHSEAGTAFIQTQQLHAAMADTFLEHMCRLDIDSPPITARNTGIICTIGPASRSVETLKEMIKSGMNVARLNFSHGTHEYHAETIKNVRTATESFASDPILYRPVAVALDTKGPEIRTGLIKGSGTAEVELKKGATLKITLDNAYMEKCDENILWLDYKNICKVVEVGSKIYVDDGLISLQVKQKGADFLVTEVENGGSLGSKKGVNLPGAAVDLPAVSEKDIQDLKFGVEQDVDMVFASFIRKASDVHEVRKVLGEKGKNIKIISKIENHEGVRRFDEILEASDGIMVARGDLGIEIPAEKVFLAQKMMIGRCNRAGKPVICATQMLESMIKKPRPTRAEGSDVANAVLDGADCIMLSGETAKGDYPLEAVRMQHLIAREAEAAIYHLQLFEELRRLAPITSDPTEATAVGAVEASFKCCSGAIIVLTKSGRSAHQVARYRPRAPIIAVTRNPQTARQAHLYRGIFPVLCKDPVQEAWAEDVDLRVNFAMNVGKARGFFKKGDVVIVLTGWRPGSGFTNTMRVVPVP
UniProt O95347: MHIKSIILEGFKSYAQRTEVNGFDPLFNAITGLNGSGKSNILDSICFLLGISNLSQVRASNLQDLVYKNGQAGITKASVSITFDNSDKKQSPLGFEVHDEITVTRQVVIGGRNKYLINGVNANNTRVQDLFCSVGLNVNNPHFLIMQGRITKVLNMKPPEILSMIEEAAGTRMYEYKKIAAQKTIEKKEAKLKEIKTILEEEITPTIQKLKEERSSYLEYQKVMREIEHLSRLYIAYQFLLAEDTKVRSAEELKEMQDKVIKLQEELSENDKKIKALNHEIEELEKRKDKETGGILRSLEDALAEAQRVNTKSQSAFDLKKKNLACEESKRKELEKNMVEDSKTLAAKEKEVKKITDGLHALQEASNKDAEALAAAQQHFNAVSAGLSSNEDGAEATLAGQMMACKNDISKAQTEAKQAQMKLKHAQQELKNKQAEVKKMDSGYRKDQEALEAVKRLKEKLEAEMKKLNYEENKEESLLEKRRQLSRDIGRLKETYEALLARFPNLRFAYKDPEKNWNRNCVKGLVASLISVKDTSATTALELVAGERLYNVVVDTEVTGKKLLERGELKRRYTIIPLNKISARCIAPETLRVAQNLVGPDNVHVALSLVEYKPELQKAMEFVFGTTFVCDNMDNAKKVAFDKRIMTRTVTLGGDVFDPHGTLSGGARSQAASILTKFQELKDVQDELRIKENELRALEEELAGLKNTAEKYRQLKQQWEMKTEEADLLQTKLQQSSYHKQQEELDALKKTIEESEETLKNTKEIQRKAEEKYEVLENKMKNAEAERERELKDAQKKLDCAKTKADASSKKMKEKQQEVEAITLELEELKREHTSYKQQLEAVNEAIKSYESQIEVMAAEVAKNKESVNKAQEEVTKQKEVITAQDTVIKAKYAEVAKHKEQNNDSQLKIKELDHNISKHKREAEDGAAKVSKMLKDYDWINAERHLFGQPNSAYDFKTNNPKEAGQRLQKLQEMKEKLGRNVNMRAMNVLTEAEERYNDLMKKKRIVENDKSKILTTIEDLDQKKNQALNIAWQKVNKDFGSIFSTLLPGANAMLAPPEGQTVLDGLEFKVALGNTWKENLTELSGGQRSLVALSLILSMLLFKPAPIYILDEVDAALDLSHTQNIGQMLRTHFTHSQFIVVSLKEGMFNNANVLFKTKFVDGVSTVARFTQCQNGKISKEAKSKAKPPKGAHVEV

binding [1]	binding [2]	Molecule
binds		PKM (from UniProt P14618 1-531)
binds		SMC2 (from UniProt O95347 1-1197)
	binds	Hyaluronan-mediated motility receptor (HMMR) (protein, UniProt O75330 1-724) MSFPKAPLKRFNDPSGCAPSPGAYDVKTLEVLKGPVSFQKSQRFKQQKESKQNLNVDKDTTLPASARKVKSSESKESQKNDKDLKILEKEIRVLLQERGAQDRRIQDLETELEKMEARLNAALREKTSLSANNATLEKQLIELTRTNELLKSKFSENGNQKNLRILSLELMKLRNKRETKMRGMMAKQEGMEMKLQVTQRSLEESQGKIAQLEGKLVSIEKEKIDEKSETEKLLEYIEEISCASDQVEKYKLDIAQLEENLKEKNDEILSLKQSLEENIVILSKQVEDLNVKCQLLEKEKEDHVNRNREHNENLNAEMQNLKQKFILEQQEREKLQQKELQIDSLLQQEKELSSSLHQKLCSFQEEMVKEKNLFEEELKQTLDELDKLQQKEEQAERLVKQLEEEAKSRAEELKLLEEKLKGKEAELEKSSAAHTQATLLLQEKYDSMVQSLEDVTAQFESYKALTASEIEDLKLENSSLQEKAAKAGKNAEDVQHQILATESSNQEYVRMLLDLQTKSALKETEIKEITVSFLQKITDLQNQLKQQEEDFRKQLEDEEGRKAEKENTTAELTEEINKWRLLYEELYNKTKPFQLQLDAFEVEKQALLNEHGAAQEQLNKIRDSYAKLLGHQNLKQKIKHVVKLKDENSQLKSEVSKLRCQLAKKKQSETKLQEELNKVLGIKHFDPSKAFHHESKENFALKTPLKEGNTNCYRAPMECQESWK
